# Measurements reported in PubChem BioAssay AID1671190 (National Center for Advancing Translational Sciences (NCATS), 2021).
# By UniProt entry, the sequences of proteins in these tests, tags left out. Where a name states a change or a piece, a line headed by the entry shows the natural chain unless it says otherwise.
# UniProt P18054: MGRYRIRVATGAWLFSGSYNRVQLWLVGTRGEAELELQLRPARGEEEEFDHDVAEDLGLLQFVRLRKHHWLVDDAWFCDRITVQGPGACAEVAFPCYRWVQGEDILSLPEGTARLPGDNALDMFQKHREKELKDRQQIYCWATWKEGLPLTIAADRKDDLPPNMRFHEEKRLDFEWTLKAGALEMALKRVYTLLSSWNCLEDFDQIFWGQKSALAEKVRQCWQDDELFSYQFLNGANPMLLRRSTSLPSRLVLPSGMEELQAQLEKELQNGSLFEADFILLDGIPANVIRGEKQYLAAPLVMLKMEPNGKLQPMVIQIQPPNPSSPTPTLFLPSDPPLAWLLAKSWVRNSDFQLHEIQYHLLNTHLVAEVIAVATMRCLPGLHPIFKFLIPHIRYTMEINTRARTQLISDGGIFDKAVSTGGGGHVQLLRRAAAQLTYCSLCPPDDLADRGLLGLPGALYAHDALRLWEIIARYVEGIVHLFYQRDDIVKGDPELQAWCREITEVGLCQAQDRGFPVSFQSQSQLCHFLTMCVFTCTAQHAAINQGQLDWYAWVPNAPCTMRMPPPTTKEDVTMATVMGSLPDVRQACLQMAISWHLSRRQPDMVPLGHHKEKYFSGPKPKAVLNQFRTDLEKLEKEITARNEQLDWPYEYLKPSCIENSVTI
# About 6,100 (1.1%) of roughly 580,000 compounds were called active. The inconclusive results got no clear call from the source; some entries with a clear call stand among them for comparison. Calls follow the shape of the dose curve; as a rule, active = well fitted inhibition curve with a large enough effect; inconclusive = small, poorly fitted or top-dose-only effect, or another doubt; inactive = no such curve, though single readings can be large or run the other way. A potency beside an inconclusive call is a rough fit, not a confirmed value.
# Biological target: Polyunsaturated fatty acid lipoxygenase ALOX12 (Homo sapiens) (UniProt P18054)
# Assay: Primary qHTS assay for inhibitors of human arachidonate 12S-lipoxygenase (ALOX12): Round 2
# Details: purified 12hLO, xylenol orange hydroperoxide absorbance; activity change, negative = inhibition: at 108 µM (top of the series) unless noted
# In short: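 Purified human 12hLO (150 nM final) in 25 mM Hepes, 0.01% Triton X-100, pH 7.0 was preincubated 15 min at room temperature with compound. Then 40 uM arachidonic acid was added, 30 min. Hydroperoxide was read by Fe-XO absorbance ratio 573/405 nm.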
# % is scaled to controls: 0 for no effect and ±100 for the full control effect; potency is read from the fitted curve at half-maximal effect.
Compound,Potency,"activity change, negative = inhibition"
CCOc1ccc(NC(=O)c2c(NCc3cccnc3)sc3c2CCCC3)cc1,"inconclusive: 5.62 µM [inhibitor, full curve]",
O=S(=O)(Nc1ccc(Br)cc1F)c1ccc2nc(-c3ccccc3)[nH]c2c1,"inconclusive: 1 µM [inhibitor, full curve, poor fit]",
Cc1n[nH]c(C)c1CNC(=O)C1CCN(c2cnn(CC3CC3)c(=O)c2)C1 (stereo unspecified),inactive,
O=C(O)c1c(Sc2ccccc2)c2cc(Cl)ccc2n1Cc1ccc(Cl)cc1,"inconclusive: 22.4 µM [inhibitor, partial curve, poor fit]",
CCCNC(=O)NC(=O)COc1c(F)c(F)cc(F)c1F,"inconclusive: 39.8 µM [inhibitor, partial curve, poor fit]",
CCOC(=O)[C@]12CCCC=C1N(Cc1ccc3c(c1)OCO3)C(=O)[C@H](CC(=O)NCc1cccc3ccccc13)C2,"inconclusive: 126 µM [inhibitor, single point]",
C/C(=N/Nc1ccc(S(=O)(=O)Nc2ccccc2C(=O)O)cc1[N+](=O)[O-])c1ccco1,"inconclusive: 15.8 µM [inhibitor, partial curve, poor fit]",
CN1CCc2c(sc(NC(=O)Cc3ccccc3)c2C#N)C1,"inconclusive: 50.1 µM [inhibitor, partial curve, poor fit]",
COc1ccc(CCn2c(=O)c3cccnc3n(CC(=O)Nc3ccc(C)c(F)c3)c2=O)cc1OC,"inconclusive: 50.1 µM [inhibitor, partial curve, poor fit]",
FC(F)(F)c1ccccc1/C=N/Nc1ccc(Cl)c(Cl)c1,"inconclusive: 0.631 µM [inhibitor, full curve, poor fit]",
CCN(CC)CCCN=Cc1c(-c2ccccc2)[nH]n(-c2nc3ccccc3s2)c1=O,"inconclusive: 25.1 µM [inhibitor, partial curve]",
COc1ccc(CC(=O)NCc2csc(-c3cccs3)n2)cc1OC,"inconclusive: 100 µM [inhibitor, partial curve, poor fit]",
CC(C)OP(=O)(OC(C)C)C(Nc1ccccn1)c1ccc(F)cc1 (stereo unspecified),,inconclusive: -30.3% [inhibitor]
O=C(Nc1ccccc1Cl)C(Cl)C(=O)c1ccccc1 (stereo unspecified),active: 20 µM,
COCc1cc(=O)n(CC(=O)Nc2ccc(C)cc2Cl)c(N2CCOCC2)n1,"inconclusive: 79.4 µM [inhibitor, partial curve, poor fit]",
Cc1ccc2nc(N3CCC(C(=O)N4CCN(c5cccc(C)c5C)CC4)CC3)[nH]c2c1,"inconclusive: 89.1 µM [inhibitor, partial curve, poor fit]",
CCCS(=O)(=O)NC(=O)C1(C)CCN(C(=O)COCc2ccccc2)C1 (stereo unspecified),"inconclusive: 89.1 µM [inhibitor, partial curve, poor fit]",
O=C(O)c1cc(NS(=O)(=O)c2ccc(F)cc2)cc(NS(=O)(=O)c2ccc(F)cc2)c1,"inconclusive: 100 µM [inhibitor, partial curve, poor fit]",
COc1ccccc1CCNC(=O)c1ccc(NC(=O)CC2SC(N3CCCC3)=NC2=O)cc1 (stereo unspecified),"inconclusive: 44.7 µM [inhibitor, partial curve, poor fit]",
O=C(Nc1cc(C(F)(F)F)cc(C(F)(F)F)c1)O[C@@H]1c2ccccc2[C@@H]2Cc3csc[n+]3[C@H]12,"inconclusive: 44.7 µM [inhibitor, partial curve, poor fit]",
Cc1ccc(-c2csc3ncnc(SCc4ccc(C(=O)O)cc4)c23)cc1,"inconclusive: 100 µM [inhibitor, single point]",
CC(=O)Nc1ccc(O)cc1[N+](=O)[O-],inactive,

# Among those listed so far, three contain an aryl methoxy group:
Compound,Potency,"activity change, negative = inhibition"
COc1ccc(CCn2c(=O)c3cccnc3n(CC(=O)Nc3ccc(C)c(F)c3)c2=O)cc1OC,"inconclusive: 50.1 µM [inhibitor, partial curve, poor fit]",
COc1ccc(CC(=O)NCc2csc(-c3cccs3)n2)cc1OC,"inconclusive: 100 µM [inhibitor, partial curve, poor fit]",
COc1ccccc1CCNC(=O)c1ccc(NC(=O)CC2SC(N3CCCC3)=NC2=O)cc1 (stereo unspecified),"inconclusive: 44.7 µM [inhibitor, partial curve, poor fit]",

# Following part

Compound,Potency,"activity change, negative = inhibition"
Cc1ccc2nc(SCC(=O)N(CC(C)C)c3c(N)n(CC(C)C)c(=O)[nH]c3=O)[nH]c2c1,"inconclusive: 79.4 µM [inhibitor, partial curve, poor fit]",
O=C(O)c1cc2cc(Oc3ccccc3)ccc2[nH]1,"inconclusive: 35.5 µM [inhibitor, partial curve, poor fit]",
CCOc1cc(=O)n2c(c1C(=O)Nc1cccc(Cl)c1F)CCCC2,inactive,
CCCCOc1cc(NCc2ccccc2)c2ncn(C(C)C)c2c1,"inconclusive: 79.4 µM [inhibitor, partial curve, poor fit]",
Cc1cc(OCC(=O)NCc2ccc(-c3nc4ncccc4o3)cc2)ccc1Cl,"inconclusive: 44.7 µM [inhibitor, partial curve, poor fit]",
CCCN(C(=O)CSc1n[nH]c(-c2ccc(OC)cc2)n1)c1c(N)n(Cc2ccccc2)c(=O)[nH]c1=O,"inconclusive: 79.4 µM [inhibitor, single point]",
CSc1ccc(NC(=O)CCc2ccc(F)cc2)cc1,"inconclusive: 44.7 µM [inhibitor, partial curve, poor fit]",
Cc1ccc(CNC(=O)c2nc(SCc3ccccc3F)ncc2Cl)cc1,inactive,
Cc1cccc(NC(=O)Cn2c(O)c(N=NC(=O)c3ccncc3)c3ccccc32)c1,inactive,
COc1ccc(/C=C(/C#N)C(=O)c2c(Cl)cccc2Cl)cc1,active: 6.31 µM,
CCCCn1c(SCC(=O)Nc2sc3c(c2C(N)=O)CCC3)nnc1-c1ccccc1,"inconclusive: 7.08 µM [inhibitor, partial curve, poor fit]",
COc1ccc(N2CCN(C(=O)CN(C)S(=O)(=O)c3cc(C)ccc3OC)CC2)cc1,"inconclusive: 126 µM [inhibitor, single point]",
CCCSc1nn(CCN(C)C)c2nc3sc4c(c3c(=O)n12)CCCCC4,inactive,
CCCOc1ccc(F)cc1-c1cc(C(=O)NCc2ccccc2)[nH]n1,inactive,
CCc1c(C)sc(NC(=O)c2ccoc2C)c1C(N)=O,active: 11.2 µM,
COc1ccc(CNc2nc3ccccc3n2Cc2ccccc2)cc1OC,"inconclusive: 126 µM [inhibitor, partial curve, poor fit]",
O=C(O)C1C2C=CC(O2)C1C(=O)Nc1cc(C(F)(F)F)ccc1Cl (stereo unspecified),inactive,
O=C(NCc1ccncc1)c1cccc2cccnc12,"inconclusive: 39.8 µM [inhibitor, single point]",
COc1ccc(OC)c(C2C(C(N)=O)=C(C)Nc3nc(CCCO)nn32)c1 (stereo unspecified),"inconclusive: 39.8 µM [inhibitor, partial curve]",
COc1cc(/C=C2\Oc3cc(O)ccc3C2=O)ccc1O,"inconclusive: 89.1 µM [inhibitor, partial curve, poor fit]",
C/C(=N\NC(=O)c1cccc(Cl)c1)c1cccc(NC(=O)C(C)C)c1,"inconclusive: 22.4 µM [inhibitor, single point]",
CCC(=O)Nc1ccc2nc(SCc3ccc(F)cc3)sc2c1,active: 14.1 µM,

Compound,Potency,"activity change, negative = inhibition"
CCCNc1nc(-c2cc(C)n(NC(=O)c3nn(C)c(=O)c4ccccc34)c2C)cs1,"inconclusive: 79.4 µM [inhibitor, partial curve, poor fit]",
CCc1nnc(NC(=O)c2ccc(NC(=O)C(C)C)cc2)s1,"inconclusive: 39.8 µM [inhibitor, partial curve, poor fit]",
Cc1ccc(/C=C/C(=O)NCCc2ccccc2)o1,"inconclusive: 0.631 µM [inhibitor, full curve, poor fit]",
OCC1CN(Cc2ccc(Cl)cc2)CC12CCNCC2 (stereo unspecified),"inconclusive: 10 µM [inhibitor, full curve]",
CCOC(=O)c1ccc(N2C(=O)c3n[nH]c(C)c3C2c2cccc(Br)c2)cc1 (stereo unspecified),inactive,
COC(=O)[C@]12CCCCC=C1N(Cc1ccccc1)C(=O)[C@H](CC(=O)NCc1ccc(C)o1)C2,"inconclusive: 112 µM [inhibitor, single point]",
Cc1cc2oc(=O)sc2cc1NS(=O)(=O)c1cccc2cccnc12,inactive,
O=C(c1ccc2c(c1)OCO2)N1CCC2(CC1)NC(=O)N(c1ccccc1Cl)N2,active: 2 µM,
COc1ccc2c(C)c(CC(=O)Nc3ccc(F)cc3F)c(=O)oc2c1OC,inactive,
CCN1CCSc2ccc(C(=O)NCc3ccccc3F)cc21,"inconclusive: 31.6 µM [inhibitor, partial curve, poor fit]",
N#CCOC(=O)CC(NC(N)=O)c1ccccc1 (stereo unspecified),"inconclusive: 39.8 µM [inhibitor, partial curve, poor fit]",
Cn1c(=O)c2c(ncn2CC(=O)NC2CCCCC2)n(C)c1=O,inactive,
Cc1ccc(NC(=O)C23CCC(C)(C(=O)C2)C3(C)C)c(C)c1 (stereo unspecified),"inconclusive: 126 µM [inhibitor, partial curve, poor fit]",
Cc1c(C)n(Cc2ccccn2)c2ncnc(NCc3ccccn3)c12,inactive,
O=C(Nc1ccc2oc(-c3ccc(F)cc3)nc2c1)c1ccc([N+](=O)[O-])o1,"inconclusive: 89.1 µM [inhibitor, single point]",
CC(C)C(NS(=O)(=O)c1cc(C(=O)O)ccc1Cl)C(=O)O (stereo unspecified),"inconclusive: 10 µM [inhibitor, full curve, poor fit]",
CC(=O)c1ccc(OCCCC(=O)OCc2ccc(C#N)cc2F)cc1,inactive,
Fc1ccc(Br)cc1SCCc1ccncc1,"inconclusive: 31.6 µM [inhibitor, partial curve]",
CCOc1ccc(CN(C)CC(=O)NCc2ccccc2Cl)cc1,inactive,
Cn1c(CNC(=O)c2ccc(F)cc2)nc2ccccc21,inactive,
O=C(CSc1ncnc2nc[nH]c12)c1ccc(Cl)cc1,"inconclusive: 39.8 µM [inhibitor, partial curve, poor fit]",
Cc1cc(N2CCN(S(=O)(=O)c3ccc4ccccc4c3)CC2)n2ncnc2n1,"inconclusive: 89.1 µM [inhibitor, single point]",
